Reference: article PMC7758625
These are yes or no findings as the source states them, for the method shown. Some binding calls cover weakened binding; strength is not graded here.

T1: Pex5 (S. cerevisiae) (UniProt P35056)
T1 sequence: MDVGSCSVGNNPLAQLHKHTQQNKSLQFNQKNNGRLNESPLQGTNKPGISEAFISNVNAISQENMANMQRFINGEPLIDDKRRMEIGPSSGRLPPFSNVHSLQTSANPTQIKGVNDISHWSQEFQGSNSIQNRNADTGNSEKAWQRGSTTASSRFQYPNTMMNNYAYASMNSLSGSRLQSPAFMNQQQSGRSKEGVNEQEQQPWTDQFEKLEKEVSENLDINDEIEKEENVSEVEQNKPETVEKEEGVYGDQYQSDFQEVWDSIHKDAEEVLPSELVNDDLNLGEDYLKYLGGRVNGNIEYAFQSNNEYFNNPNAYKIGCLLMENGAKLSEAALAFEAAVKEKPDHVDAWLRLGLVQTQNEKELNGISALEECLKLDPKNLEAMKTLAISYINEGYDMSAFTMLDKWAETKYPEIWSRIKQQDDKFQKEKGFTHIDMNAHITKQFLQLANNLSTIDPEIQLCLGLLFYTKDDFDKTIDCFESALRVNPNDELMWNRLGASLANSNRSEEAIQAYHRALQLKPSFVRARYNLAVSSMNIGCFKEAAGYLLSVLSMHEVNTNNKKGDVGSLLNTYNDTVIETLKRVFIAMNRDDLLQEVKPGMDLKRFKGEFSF

T2: Mdh3 (peroxisomal iso-enzyme of Mdh2) (S. cerevisiae) (UniProt P32419)
T2 sequence: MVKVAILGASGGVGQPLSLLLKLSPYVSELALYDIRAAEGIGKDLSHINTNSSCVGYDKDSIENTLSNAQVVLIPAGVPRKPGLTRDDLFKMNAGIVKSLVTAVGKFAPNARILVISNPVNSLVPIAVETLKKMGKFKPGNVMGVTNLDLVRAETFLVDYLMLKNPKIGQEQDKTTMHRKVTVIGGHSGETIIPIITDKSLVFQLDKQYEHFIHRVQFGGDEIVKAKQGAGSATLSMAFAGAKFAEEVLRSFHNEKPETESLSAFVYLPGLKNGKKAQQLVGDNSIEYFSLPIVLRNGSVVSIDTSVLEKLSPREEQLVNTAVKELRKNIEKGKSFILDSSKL


What was measured:
Pex5 (S. cerevisiae) = target: T1, Pex5 (S. cerevisiae); assay: two-hybrid; S. cerevisiae PJ69-4A co-transformed with pPC86 (Gal4 activation domain) and pPC97 (Gal4 binding domain) plasmids in different combinations; three clones each replicated on 2% Glu-YNB -Leu -Trp -His + 5 mM 3-AT, 3-6 d; n=3
[1] = target: T2, Mdh3 (peroxisomal iso-enzyme of Mdh2) (S. cerevisiae); assay: as above

Row | binding (Pex5 (S. cerevisiae)) | binding [1] | Binder
1 | binds |  | Mdh3 (peroxisomal iso-enzyme of Mdh2) (enzyme, UniProt P32419 1-343) MVKVAILGASGGVGQPLSLLLKLSPYVSELALYDIRAAEGIGKDLSHINTNSSCVGYDKDSIENTLSNAQVVLIPAGVPRKPGLTRDDLFKMNAGIVKSLVTAVGKFAPNARILVISNPVNSLVPIAVETLKKMGKFKPGNVMGVTNLDLVRAETFLVDYLMLKNPKIGQEQDKTTMHRKVTVIGGHSGETIIPIITDKSLVFQLDKQYEHFIHRVQFGGDEIVKAKQGAGSATLSMAFAGAKFAEEVLRSFHNEKPETESLSAFVYLPGLKNGKKAQQLVGDNSIEYFSLPIVLRNGSVVSIDTSVLEKLSPREEQLVNTAVKELRKNIEKGKSFILDSSKL
2 | no binding | binds | malate dehydrogenase 2 (Mdh2) (enzyme, UniProt P22133 1-377) MPHSVTPSIEQDSLKIAILGAAGGIGQSLSLLLKAQLQYQLKESNRSVTHIHLALYDVNQEAINGVTADLSHIDTPISVSSHSPAGGIENCLHNASIVVIPAGVPRKPGMTRDDLFNVNAGIISQLGDSIAECCDLSKVFVLVISNPVNSLVPVMVSNILKNHPQSRNSGIERRIMGVTKLDIVRASTFLREINIESGLTPRVNSMPDVPVIGGHSGETIIPLFSQSNFLSRLNEDQLKYLIHRVQYGGDEVVKAKNGKGSATLSMAHAGYKCVVQFVSLLLGNIEQIHGTYYVPLKDANNFPIAPGADQLLPLVDGADYFAIPLTITTKGVSYVDYDIVNRMNDMERNQMLPICVSQLKKNIDKGLEFVASRSASS
